Experimental data reported in EP0079675A1, “Oxazolidinedione derivatives” (PFIZER INC., priority 1981, dated 1983).
Some of these results come from one statement about several compounds together.

Target: T1, aldose reductase enzyme obtained from calf lens (Bos taurus, UniProt P16116)
T1 construct: partially purified aldose reductase enzyme obtained from calf lens; from tissue; host or cells: calf lens
Assay: inhibition of aldose reductase enzyme activity (procedure of S. Hayman et al., modified by K. Sestanj et al.)
Type: biochemical
Details: statement in words, no concentration given
Procedure: The activity of the compounds of the present invention, as agents for the control of chronic diabetic complications, is determined by their ability to successfully pass one or more of the following standard biological or pharmacological tests, viz., (1) measuring their ability to inhibit the enzyme activity of isolated aldose reductase; (2) measuring their ability to reduce or inhibit sorbitol accumulation in the sciatic nerve of acutely streptozotocinized (i.e., diabetic) rats; (3) measuring their ability to reverse already-elevated sorbitol levels in the sciatic nerve and lens of chronic streptozotocin-induced diabetic rats; (4) measuring their ability to prevent or inhibit galactitol formation in the lens of acutely galactosemic rats, and (5) measuring their ability to delay cataract formation and reduce the severity of lens opacities in chronic galactosemic rats.
The following s^piro-oxindole oxazolidinedione final products of Examples 1-4, respectively, were tested for their ability to reduce or inhibit aldose reductase enzyme activity via the procedure of S. Hayman et al., as described in the Journal of Biological Chemistry, Vol 240, p.. 877 (1965) and as modified by K. Sestanj et al. in U.S. Patent No. 3,821,383. In every case, the substrate employed was partially purified aldose reductase enzyme obtained from calf lens.

Aldose reductase inhibitory activity, highly potent:
O=C1NC(=O)C2(O1)C(=O)N(c1ccc(F)cc1)c1ccc(F)cc12 (stereo not shown) [Product of Example 1, 1-(p-fluorophenyl)-5-fluoro-spiro-[indoline-3,5-oxazolidine]-2,2',4'-trione]
CC(C)N1C(=O)C2(OC(=O)NC2=O)c2cc(Cl)ccc21 (stereo not shown) [Product of Example 2, 1-isopropyl-5-chloro-s^piro-[indoline-3,5'-oxazolidine]-2,2',4'-trione]
CN1C(=O)C2(OC(=O)NC2=O)c2cc(Cl)ccc21 (stereo not shown) [Product of Example 3]
O=C1NC(=O)C2(O1)C(=O)N(Cc1ccc(Cl)cc1)c1ccc(Cl)cc12 (stereo not shown) [Product of Example 4, 1-(p-chlorobenzyl)-5-chloro-spiro-(indoline-3,5'-oxazolidine]-2,2',4'-trione]
